Source: paper PMC11005723, “Development of Complementary Photo‐arginine/lysine to Promote Discovery of Arg/Lys hPTMs Interactomes” (Advanced Science, 2024)
This continues a long series; more values of the same kind are listed elsewhere.

Tested on: HEK293T nuclear lysates
Experiment: SILAC‐based pull‐down proteomics H4K5acK8ac/H4K5 (probes 8/5)
Assay type: binding, human
Conditions: for A6 log2 (H4K5ac8ac/H4K5): replicate A6; for B6 log2 (H4K5ac8ac/H4K5): replicate B6

Substance: probe 8: H4K5acK8ac peptide probe with photo‐arginine R(dz) and K(biotin) (SGRGKGGKGLGKGGK; photo-arginine R(dz) at 3; acetyl-lysine at 5; acetyl-lysine at 8; K(biotin) at 15)
- A6 log2 (H4K5ac8ac/H4K5) (protein LUC7L3 (O95232)): -0.02795
- B6 log2 (H4K5ac8ac/H4K5) (protein LUC7L3 (O95232)): 0.1202
- A6 log2 (H4K5ac8ac/H4K5) (protein LYAR (Q9NX58)): -0.05071
- B6 log2 (H4K5ac8ac/H4K5) (protein LYAR (Q9NX58)): 0.08497
- A6 log2 (H4K5ac8ac/H4K5) (protein MAP4 (P27816)): 0.3233
- B6 log2 (H4K5ac8ac/H4K5) (protein MAP4 (P27816)): 0.1715
- A6 log2 (H4K5ac8ac/H4K5) (protein MARCKS (P29966)): -0.2392
- B6 log2 (H4K5ac8ac/H4K5) (protein MARCKS (P29966)): 0.09304
- A6 log2 (H4K5ac8ac/H4K5) (protein MCM3 (P25205)): 0.1308
- B6 log2 (H4K5ac8ac/H4K5) (protein MCM3 (P25205)): 0.08696
- A6 log2 (H4K5ac8ac/H4K5) (protein MDH2 (P40926)): 0.09494
- B6 log2 (H4K5ac8ac/H4K5) (protein MDH2 (P40926)): 0.1714
- A6 log2 (H4K5ac8ac/H4K5) (protein METAP2 (G3V1U3)): 0.04926
- B6 log2 (H4K5ac8ac/H4K5) (protein METAP2 (G3V1U3)): 0.1047
- A6 log2 (H4K5ac8ac/H4K5) (protein MPP1 (Q00013)): 0.6114
- B6 log2 (H4K5ac8ac/H4K5) (protein MPP1 (Q00013)): 0.1357
- A6 log2 (H4K5ac8ac/H4K5) (protein MRE11A (P49959)): 0.1411
- B6 log2 (H4K5ac8ac/H4K5) (protein MRE11A (P49959)): 0.1457
- A6 log2 (H4K5ac8ac/H4K5) (protein MRPL53 (Q96EL3)): 0.1082
- B6 log2 (H4K5ac8ac/H4K5) (protein MRPL53 (Q96EL3)): 0.08646
- A6 log2 (H4K5ac8ac/H4K5) (protein MTA1 (Q13330)): 0.02816
- B6 log2 (H4K5ac8ac/H4K5) (protein MTA1 (Q13330)): 0.1962
- A6 log2 (H4K5ac8ac/H4K5) (protein MTA2 (O94776)): -0.1462
- B6 log2 (H4K5ac8ac/H4K5) (protein MTA2 (O94776)): 0.09995
- A6 log2 (H4K5ac8ac/H4K5) (protein MTHFD1 (P11586)): 0.4565
- B6 log2 (H4K5ac8ac/H4K5) (protein MTHFD1 (P11586)): 0.1529
- A6 log2 (H4K5ac8ac/H4K5) (protein NCBP1 (Q09161)): 0.2871
- B6 log2 (H4K5ac8ac/H4K5) (protein NCBP1 (Q09161)): 0.08177
- A6 log2 (H4K5ac8ac/H4K5) (protein NONO (Q15233)): 0.2525
- B6 log2 (H4K5ac8ac/H4K5) (protein NONO (Q15233)): 0.1247
- A6 log2 (H4K5ac8ac/H4K5) (protein NOSIP (M0R3B2)): 0.1983
- B6 log2 (H4K5ac8ac/H4K5) (protein NOSIP (M0R3B2)): 0.2056
- A6 log2 (H4K5ac8ac/H4K5) (protein PDIA3 (P30101)): 0.1866
- B6 log2 (H4K5ac8ac/H4K5) (protein PDIA3 (P30101)): 0.1318
- A6 log2 (H4K5ac8ac/H4K5) (protein PDIA6 (Q15084)): 0.2168
- B6 log2 (H4K5ac8ac/H4K5) (protein PDIA6 (Q15084)): 0.2094
- A6 log2 (H4K5ac8ac/H4K5) (protein PDLIM1 (O00151)): 0.2528
- B6 log2 (H4K5ac8ac/H4K5) (protein PDLIM1 (O00151)): 0.0826
- A6 log2 (H4K5ac8ac/H4K5) (protein PDS5A (Q29RF7)): 0.4669
- B6 log2 (H4K5ac8ac/H4K5) (protein PDS5A (Q29RF7)): 0.2083
- A6 log2 (H4K5ac8ac/H4K5) (protein PEPD (P12955)): 0.5993
- B6 log2 (H4K5ac8ac/H4K5) (protein PEPD (P12955)): 0.0876
- A6 log2 (H4K5ac8ac/H4K5) (protein PFN1 (P07737)): 0.1687
- B6 log2 (H4K5ac8ac/H4K5) (protein PFN1 (P07737)): 0.1385
- A6 log2 (H4K5ac8ac/H4K5) (protein PGAM1 (P18669)): 0.3474
- B6 log2 (H4K5ac8ac/H4K5) (protein PGAM1 (P18669)): 0.1442
- A6 log2 (H4K5ac8ac/H4K5) (protein PHF3 (Q92576)): 0.2762
- B6 log2 (H4K5ac8ac/H4K5) (protein PHF3 (Q92576)): 0.1245
- A6 log2 (H4K5ac8ac/H4K5) (protein PHF6 (Q8IWS0)): 0.1923
- B6 log2 (H4K5ac8ac/H4K5) (protein PHF6 (Q8IWS0)): 0.2185
- A6 log2 (H4K5ac8ac/H4K5) (protein PPIL4 (Q8WUA2)): -0.01885
- B6 log2 (H4K5ac8ac/H4K5) (protein PPIL4 (Q8WUA2)): 0.132
- A6 log2 (H4K5ac8ac/H4K5) (protein PPP2CB (P62714)): 0.1151
- B6 log2 (H4K5ac8ac/H4K5) (protein PPP2CB (P62714)): 0.1355
- A6 log2 (H4K5ac8ac/H4K5) (protein PRMT1 (H7C2I1)): 0.02607
- B6 log2 (H4K5ac8ac/H4K5) (protein PRMT1 (H7C2I1)): 0.1543
- A6 log2 (H4K5ac8ac/H4K5) (protein PSMG2 (V9GZ55)): 0.3486
- B6 log2 (H4K5ac8ac/H4K5) (protein PSMG2 (V9GZ55)): 0.2118
- A6 log2 (H4K5ac8ac/H4K5) (protein PTPN1 (P18031)): 0.5362
- B6 log2 (H4K5ac8ac/H4K5) (protein PTPN1 (P18031)): 0.1917
- A6 log2 (H4K5ac8ac/H4K5) (protein RACGAP1 (Q9H0H5)): -0.2953
- B6 log2 (H4K5ac8ac/H4K5) (protein RACGAP1 (Q9H0H5)): 0.08375
- A6 log2 (H4K5ac8ac/H4K5) (protein RANBP2 (P49792)): 0.2105
- B6 log2 (H4K5ac8ac/H4K5) (protein RANBP2 (P49792)): 0.0877
- A6 log2 (H4K5ac8ac/H4K5) (protein RAP1A (P62834)): 0.3804
- B6 log2 (H4K5ac8ac/H4K5) (protein RAP1A (P62834)): 0.1782
- A6 log2 (H4K5ac8ac/H4K5) (protein RBM4 (Q9BWF3)): 0.441
- B6 log2 (H4K5ac8ac/H4K5) (protein RBM4 (Q9BWF3)): 0.172
- A6 log2 (H4K5ac8ac/H4K5) (protein RBM14 (Q96PK6)): 0.2185
- B6 log2 (H4K5ac8ac/H4K5) (protein RBM14 (Q96PK6)): 0.1747
- A6 log2 (H4K5ac8ac/H4K5) (protein RCC2 (Q9P258)): 0.1006
- B6 log2 (H4K5ac8ac/H4K5) (protein RCC2 (Q9P258)): 0.08968
- A6 log2 (H4K5ac8ac/H4K5) (protein RFX5 (P48382)): 0.2839
- B6 log2 (H4K5ac8ac/H4K5) (protein RFX5 (P48382)): 0.1163
- A6 log2 (H4K5ac8ac/H4K5) (protein RNF126 (K7EIY6)): 0.1295
- B6 log2 (H4K5ac8ac/H4K5) (protein RNF126 (K7EIY6)): 0.1252
- A6 log2 (H4K5ac8ac/H4K5) (protein SALL2 (F5H433)): 0.5054
- B6 log2 (H4K5ac8ac/H4K5) (protein SALL2 (F5H433)): 0.2147
- A6 log2 (H4K5ac8ac/H4K5) (protein SCML2 (Q9UQR0)): 0.3736
- B6 log2 (H4K5ac8ac/H4K5) (protein SCML2 (Q9UQR0)): 0.1694
- A6 log2 (H4K5ac8ac/H4K5) (protein SEPHS1 (P49903)): 0.2524
- B6 log2 (H4K5ac8ac/H4K5) (protein SEPHS1 (P49903)): 0.1557
- A6 log2 (H4K5ac8ac/H4K5) (protein SFPQ (P23246)): 0.1435
- B6 log2 (H4K5ac8ac/H4K5) (protein SFPQ (P23246)): 0.1775
- A6 log2 (H4K5ac8ac/H4K5) (protein SHMT2 (P34897)): -0.116
- B6 log2 (H4K5ac8ac/H4K5) (protein SHMT2 (P34897)): 0.08856
- A6 log2 (H4K5ac8ac/H4K5) (protein SMAD4 (K7ES96)): 0.2948
- B6 log2 (H4K5ac8ac/H4K5) (protein SMAD4 (K7ES96)): 0.1131
- A6 log2 (H4K5ac8ac/H4K5) (protein SMC3 (Q9UQE7)): 0.3104
- B6 log2 (H4K5ac8ac/H4K5) (protein SMC3 (Q9UQE7)): 0.1783
- A6 log2 (H4K5ac8ac/H4K5) (protein SMCHD1 (A6NHR9)): 0.3298
